{"sequences": {"note": "By UniProt entry, the sequences of proteins in these tests, tags left out.", "UniProt Q0JBA9, entry or part of it": "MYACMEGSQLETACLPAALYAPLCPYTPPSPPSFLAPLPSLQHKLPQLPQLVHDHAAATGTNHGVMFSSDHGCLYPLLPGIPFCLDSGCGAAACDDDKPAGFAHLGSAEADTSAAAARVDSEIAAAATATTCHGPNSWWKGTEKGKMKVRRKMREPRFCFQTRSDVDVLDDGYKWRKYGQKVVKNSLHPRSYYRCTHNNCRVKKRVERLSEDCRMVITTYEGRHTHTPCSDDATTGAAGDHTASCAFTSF"}, "source": "paper PMC7819943", "about": "“Rice protein-binding microarrays: a tool to detect cis-acting elements near promoter regions in rice”", "note": "Some of the results follow."}
{"target": "OsWRKY34 (Oryza sativa, UniProt Q0JBA9 1-250)", "assay": "protein-binding microarray (RPBM); PBS, 2% BSA, 51.3 ng/ul salmon testes DNA, 50 uM zinc acetate, 200 nM TF, 25 C, 1 h; high values mean tight binding", "conditions": "protein: recombinant; tags: N-terminal polyhistidine and DsRed monomer fusion (pET32a); label: CyDye5-dUTP incorporated in the synthesized complementary strand; 3' TTTTT single-stranded linker to array surface; dsDNA, one strand shown", "in_short": "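In PBS with 2% BSA, salmon testes DNA and 50 µM zinc acetate, 200 nM protein was incubated on a custom Agilent array at 25 °C for 1 h and then washed off. The array had been made double-stranded by primer extension with Cy5-dUTP and blocked with 2% BSA. The proteins were transcription factors fused N-terminally to polyhistidine and DsRed, expressed in E. coli BL21-CodonPlus and purified on Ni–NTA. The binding signal is per-feature fluorescence intensity (arbitrary units) from an Axon 4000B scanner.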"}
{"sequence": "TCCTTGTCTTCTCCATCGTTGATCTTCTCGCAGCAGTTTCCGGAGTCACCTAGTGCAG", "binding signal": "9820 fluorescence intensity (a.u.)"}
{"sequence": "TCATGCTCACGTTTGGTGGTGGTTGCTGTTCGATCGTCCACGGAGTCACCTAGTGCAG", "binding signal": "10200 fluorescence intensity (a.u.)"}
{"sequence": "GGTTTTGTCCACTACCCCACCTTTCTCTCCGCAAGAATCACGGAGTCACCTAGTGCAG", "binding signal": "8640 fluorescence intensity (a.u.)"}
{"sequence": "CTCCTCCACTCCTTCGCCAACGACCTCATCTGCCGCGCCGCGGAGTCACCTAGTGCAG", "binding signal": "10200 fluorescence intensity (a.u.)"}
{"sequence": "TACACTGGGTTGGCGAGCGGGGTGGGCCTGGGCCTCGAGGCGGAGTCACCTAGTGCAG", "binding signal": "12700 fluorescence intensity (a.u.)"}
{"sequence": "CAAGAAGCATGTTCCTCGGTATTTCTCGCTACATCTTATCCGGAGTCACCTAGTGCAG", "binding signal": "10700 fluorescence intensity (a.u.)"}
{"sequence": "TTGGTTAGCTACAGTTTCAGTTCGGGGAATCGCCCTATACCGGAGTCACCTAGTGCAG", "binding signal": "8100 fluorescence intensity (a.u.)"}
{"sequence": "AGCCTTCGTTGGTATTGATATGTTTGTGTTATCTTATGTACGGAGTCACCTAGTGCAG", "binding signal": "8040 fluorescence intensity (a.u.)"}
{"sequence": "ATTTGTATTTCTATCAGAATTCTTTATTCCTTCGTTTTTTCGGAGTCACCTAGTGCAG", "binding signal": "8840 fluorescence intensity (a.u.)"}
{"sequence": "GATCGCTTCACTTTCCACCAAGACTTCACCTGACCTTGCCCGGAGTCACCTAGTGCAG", "binding signal": "9340 fluorescence intensity (a.u.)"}
{"sequence": "ATCCATCATAATTCTTTGCATTATCTTTCTTTGAACACACCGGAGTCACCTAGTGCAG", "binding signal": "9090 fluorescence intensity (a.u.)"}
{"sequence": "TCCGTGTCCAACGTTTGACTTCCCGTCTTATATAATTTTTCGGAGTCACCTAGTGCAG", "binding signal": "9380 fluorescence intensity (a.u.)"}
{"sequence": "CACTCACTCGCTGCCTGCTCAAACACACACACGGCACTCCCGGAGTCACCTAGTGCAG", "binding signal": "9730 fluorescence intensity (a.u.)"}
{"sequence": "GTCTCCCGTGCTTCACTTGTAGCTATCTACTCCATCTATCCGGAGTCACCTAGTGCAG", "binding signal": "8380 fluorescence intensity (a.u.)"}
{"sequence": "CTAGTGAGGGGCGGGCGGGCGGGCAAGGGGAGCGGATGGGCGGAGTCACCTAGTGCAG", "binding signal": "19100 fluorescence intensity (a.u.)"}
{"sequence": "CAATTTTCTTTCCATCTCCGTCATTGCACCTCTCATTTAACGGAGTCACCTAGTGCAG", "binding signal": "13000 fluorescence intensity (a.u.)"}
{"sequence": "AACCCGTCTCCGCTTGATCAGGTGCGTCACCCGTGGCGCCCGGAGTCACCTAGTGCAG", "binding signal": "9490 fluorescence intensity (a.u.)"}
{"sequence": "ACCCACCTGCATCCACCCCTATCCTCGCGCACGCCGGTCGCGGAGTCACCTAGTGCAG", "binding signal": "8680 fluorescence intensity (a.u.)"}
{"sequence": "TATTAACATTCTAGTTACTAGCTCTACGTGCATGCACATACGGAGTCACCTAGTGCAG", "binding signal": "8090 fluorescence intensity (a.u.)"}
{"sequence": "AGCCCACCACCGACGCCCTCGTTGACATGAAGTTTTATTCCGGAGTCACCTAGTGCAG", "binding signal": "8850 fluorescence intensity (a.u.)"}
{"sequence": "GCACCAACCATCTCACCCGTCCGACGTGGCAGCAGCAACCCGGAGTCACCTAGTGCAG", "binding signal": "8770 fluorescence intensity (a.u.)"}
{"sequence": "AGCCTAGATTATCTCCAGTCTCCTCGGCCAATTCCCGACTCGGAGTCACCTAGTGCAG", "binding signal": "8280 fluorescence intensity (a.u.)"}
{"sequence": "CATTTTTCTTCGATCGTGACATGCCGGGCCAGCCCACCGTCGGAGTCACCTAGTGCAG", "binding signal": "8390 fluorescence intensity (a.u.)"}
{"sequence": "TTGTTTGATCATTCCCTTTCAGCTTTGATTTTCCTGGTATCGGAGTCACCTAGTGCAG", "binding signal": "8210 fluorescence intensity (a.u.)"}
{"sequence": "CCTCCAGATGTTGGGGCGGCGACGGTGTTTGTTGGGGTGGCGGAGTCACCTAGTGCAG", "binding signal": "11600 fluorescence intensity (a.u.)"}
{"sequence": "AGTGTGTTGATCTCTTAGTTTTTTTCTGTTATTGTTTTACCGGAGTCACCTAGTGCAG", "binding signal": "8550 fluorescence intensity (a.u.)"}
{"sequence": "AAGGCTAGTTATTGTTGTGAATGCATTTTCTTGGGCATCTCGGAGTCACCTAGTGCAG", "binding signal": "11800 fluorescence intensity (a.u.)"}
{"sequence": "TCTCGTTTTGCTCTTCTGTTTCGCTCGCTCTCCTCTCCCTCGGAGTCACCTAGTGCAG", "binding signal": "12900 fluorescence intensity (a.u.)"}
{"sequence": "GTTTCTGTAGCCGGTACTATCAAATGACCCAATTTCTGACCGGAGTCACCTAGTGCAG", "binding signal": "9440 fluorescence intensity (a.u.)"}
{"sequence": "TAGTTTTTTACATATGTATAATTTTTATACTTACGTATACCGGAGTCACCTAGTGCAG", "binding signal": "8420 fluorescence intensity (a.u.)"}
{"sequence": "GGTGCGGGGTGGCGGTGCTCGGCCACAGCGGCGCGCGGGGCGGAGTCACCTAGTGCAG", "binding signal": "8130 fluorescence intensity (a.u.)"}
{"sequence": "CTCCCGCGAGTCCGCCACCGCAACCACCTCGCCTCGCCCACGGAGTCACCTAGTGCAG", "binding signal": "8990 fluorescence intensity (a.u.)"}
{"sequence": "CCGTGTTGTCGTTCCTCCAAATTTGTACCGTTTTCCCTCTCGGAGTCACCTAGTGCAG", "binding signal": "8770 fluorescence intensity (a.u.)"}
{"sequence": "CCGTCCCCACGTCGCCCACGAACCGCCTTTGCCGCTCGCTCGGAGTCACCTAGTGCAG", "binding signal": "8690 fluorescence intensity (a.u.)"}
{"sequence": "CCCGAGCCGAAACCGCCTCCGCCTATTCGCGCCACCCACACGGAGTCACCTAGTGCAG", "binding signal": "8210 fluorescence intensity (a.u.)"}
{"sequence": "ACCAATTACACAGTTCACCAGGAAGTTGCGAAACGAATCTCGGAGTCACCTAGTGCAG", "binding signal": "8250 fluorescence intensity (a.u.)"}
{"sequence": "TGGGGTGGTTTTTCCGATGCAGGCTGGGTTGGTTGCCTAGCGGAGTCACCTAGTGCAG", "binding signal": "8300 fluorescence intensity (a.u.)"}
{"sequence": "TGTGTTGGGTAATTCGGTTTAGGTACAATAATCTGCCATTCGGAGTCACCTAGTGCAG", "binding signal": "9600 fluorescence intensity (a.u.)"}
{"sequence": "AAACGGCCATTCCTGTGTTTTTCCTGTGTTTTGTAATCCTCGGAGTCACCTAGTGCAG", "binding signal": "12800 fluorescence intensity (a.u.)"}
{"sequence": "ATCAATTTGTTTTAGTTTTAATATTCATATTTCATCTTATCGGAGTCACCTAGTGCAG", "binding signal": "8160 fluorescence intensity (a.u.)"}
{"sequence": "TATCTACTAATTTAACTTATAAATGGGTTTATGGGTTGACCGGAGTCACCTAGTGCAG", "binding signal": "8600 fluorescence intensity (a.u.)"}
{"sequence": "GCAGCTCAGCCTCAGTGCAACCCACTCGCTCTCTCTCACTCGGAGTCACCTAGTGCAG", "binding signal": "8500 fluorescence intensity (a.u.)"}
